Measured values as given in PMC3990521.

Sequences of proteins named here, by UniProt entry; tags and fusion partners are left off. A change or cut given only in a name is not applied to a line headed by its entry.
UniProt Q03468: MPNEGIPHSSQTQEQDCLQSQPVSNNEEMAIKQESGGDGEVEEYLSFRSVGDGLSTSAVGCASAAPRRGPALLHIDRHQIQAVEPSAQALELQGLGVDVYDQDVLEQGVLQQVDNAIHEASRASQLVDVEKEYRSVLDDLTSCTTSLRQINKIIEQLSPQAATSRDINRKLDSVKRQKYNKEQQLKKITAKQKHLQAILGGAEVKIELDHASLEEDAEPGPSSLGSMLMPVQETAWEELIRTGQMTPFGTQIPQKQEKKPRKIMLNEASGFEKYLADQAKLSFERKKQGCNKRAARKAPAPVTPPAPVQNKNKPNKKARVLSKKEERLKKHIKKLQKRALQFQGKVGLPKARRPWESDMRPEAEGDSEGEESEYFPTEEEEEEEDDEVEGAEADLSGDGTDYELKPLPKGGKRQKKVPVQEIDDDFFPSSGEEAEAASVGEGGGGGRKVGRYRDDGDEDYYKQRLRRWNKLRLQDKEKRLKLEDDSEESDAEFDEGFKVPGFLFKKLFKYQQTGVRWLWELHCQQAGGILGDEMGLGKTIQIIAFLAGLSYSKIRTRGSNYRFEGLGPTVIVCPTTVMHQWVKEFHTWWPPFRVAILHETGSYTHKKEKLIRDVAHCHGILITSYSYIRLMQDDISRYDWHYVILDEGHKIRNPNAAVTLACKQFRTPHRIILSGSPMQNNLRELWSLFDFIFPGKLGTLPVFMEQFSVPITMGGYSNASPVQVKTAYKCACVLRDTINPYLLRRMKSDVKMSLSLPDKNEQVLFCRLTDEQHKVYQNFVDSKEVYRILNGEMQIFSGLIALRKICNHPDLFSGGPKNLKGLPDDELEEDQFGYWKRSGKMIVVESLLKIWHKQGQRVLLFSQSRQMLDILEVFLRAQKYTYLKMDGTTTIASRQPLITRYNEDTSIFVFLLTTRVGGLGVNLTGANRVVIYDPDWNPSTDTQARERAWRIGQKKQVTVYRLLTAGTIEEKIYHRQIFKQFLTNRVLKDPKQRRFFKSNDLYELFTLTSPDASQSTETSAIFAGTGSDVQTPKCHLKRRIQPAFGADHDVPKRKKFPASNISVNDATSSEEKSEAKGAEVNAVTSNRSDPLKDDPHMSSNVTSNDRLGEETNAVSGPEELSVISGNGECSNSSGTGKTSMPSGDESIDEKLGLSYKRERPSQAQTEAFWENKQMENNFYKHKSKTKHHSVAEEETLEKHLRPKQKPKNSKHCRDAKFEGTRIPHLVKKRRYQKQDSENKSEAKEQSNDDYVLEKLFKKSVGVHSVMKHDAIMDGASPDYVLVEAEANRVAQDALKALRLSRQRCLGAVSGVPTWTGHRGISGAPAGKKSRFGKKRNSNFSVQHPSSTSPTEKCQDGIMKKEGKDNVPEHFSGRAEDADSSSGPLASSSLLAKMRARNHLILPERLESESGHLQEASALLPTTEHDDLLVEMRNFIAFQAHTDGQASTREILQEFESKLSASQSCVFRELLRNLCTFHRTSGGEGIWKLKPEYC
UniProt P05412: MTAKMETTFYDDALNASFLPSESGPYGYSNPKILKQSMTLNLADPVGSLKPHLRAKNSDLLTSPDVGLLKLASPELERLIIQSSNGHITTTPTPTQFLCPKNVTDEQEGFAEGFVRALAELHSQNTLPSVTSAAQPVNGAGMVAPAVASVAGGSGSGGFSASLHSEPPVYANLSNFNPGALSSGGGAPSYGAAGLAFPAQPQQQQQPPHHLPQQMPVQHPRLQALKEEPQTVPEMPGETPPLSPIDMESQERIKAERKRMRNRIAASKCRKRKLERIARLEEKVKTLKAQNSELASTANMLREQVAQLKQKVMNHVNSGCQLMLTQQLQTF

Biological target: CSBΔN1 (human) (UniProt Q03468)
Assay: ChIP-western; cells pre-extracted in Buffer B (150 mM NaCl, 0.5% Triton X-100) to remove soluble CSB and c-Jun, pellet fixed with 1% formaldehyde 10 min, sonicated; chromatin immunoprecipitated with monoclonal anti-CSB antibody 1B1, cross-links reversed, western blot for c-Jun

binding: binds
Substance: c-Jun (from UniProt P05412 1-331)

No constants are given. Whether binding was seen depends on the method and setting. A result given as binding can be weak or reduced; the word gives no strength.
